Results are given in words; binding and its absence hold for the method and conditions named. Binding seen in cells or lysates may run through a third protein. Here binding means that the protein was enriched with, or labelled near, the bait; the list need not be complete.

Protein sequences, listed by entry. Tags and fused reporters are not part of them.
UniProt O80982: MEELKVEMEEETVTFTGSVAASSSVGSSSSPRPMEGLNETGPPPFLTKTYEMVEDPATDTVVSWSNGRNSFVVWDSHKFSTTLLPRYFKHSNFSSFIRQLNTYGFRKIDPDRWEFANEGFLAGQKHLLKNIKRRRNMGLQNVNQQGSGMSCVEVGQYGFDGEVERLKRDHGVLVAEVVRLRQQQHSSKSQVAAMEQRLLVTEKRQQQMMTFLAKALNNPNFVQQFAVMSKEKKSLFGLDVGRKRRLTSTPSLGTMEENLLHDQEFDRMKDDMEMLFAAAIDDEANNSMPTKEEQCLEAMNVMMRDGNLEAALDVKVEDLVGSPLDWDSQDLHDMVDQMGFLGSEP
UniProt Q9LUH8: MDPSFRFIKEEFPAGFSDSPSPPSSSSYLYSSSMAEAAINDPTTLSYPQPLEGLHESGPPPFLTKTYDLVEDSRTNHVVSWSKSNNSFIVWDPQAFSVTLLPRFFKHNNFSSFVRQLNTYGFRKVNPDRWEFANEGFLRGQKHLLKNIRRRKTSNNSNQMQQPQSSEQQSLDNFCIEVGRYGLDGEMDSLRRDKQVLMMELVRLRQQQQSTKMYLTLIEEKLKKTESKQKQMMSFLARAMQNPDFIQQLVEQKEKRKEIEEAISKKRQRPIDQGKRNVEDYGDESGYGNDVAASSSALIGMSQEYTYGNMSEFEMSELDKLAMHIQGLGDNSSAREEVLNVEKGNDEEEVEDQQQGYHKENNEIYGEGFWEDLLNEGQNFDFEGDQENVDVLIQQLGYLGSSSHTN
UniProt Q9LQM7: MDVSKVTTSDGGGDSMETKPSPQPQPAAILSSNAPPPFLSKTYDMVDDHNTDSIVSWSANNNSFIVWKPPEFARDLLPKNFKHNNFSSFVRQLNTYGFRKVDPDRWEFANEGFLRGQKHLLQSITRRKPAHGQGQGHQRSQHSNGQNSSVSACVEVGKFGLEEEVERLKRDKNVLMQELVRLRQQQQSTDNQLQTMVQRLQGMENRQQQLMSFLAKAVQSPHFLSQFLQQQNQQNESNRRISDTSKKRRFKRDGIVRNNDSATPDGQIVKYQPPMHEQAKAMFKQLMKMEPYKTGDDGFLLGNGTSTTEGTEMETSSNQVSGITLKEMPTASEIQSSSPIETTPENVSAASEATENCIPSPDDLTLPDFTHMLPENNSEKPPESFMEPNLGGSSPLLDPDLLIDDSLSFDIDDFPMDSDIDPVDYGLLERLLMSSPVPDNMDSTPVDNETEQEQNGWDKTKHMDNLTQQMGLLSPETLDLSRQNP
UniProt Q9SV12: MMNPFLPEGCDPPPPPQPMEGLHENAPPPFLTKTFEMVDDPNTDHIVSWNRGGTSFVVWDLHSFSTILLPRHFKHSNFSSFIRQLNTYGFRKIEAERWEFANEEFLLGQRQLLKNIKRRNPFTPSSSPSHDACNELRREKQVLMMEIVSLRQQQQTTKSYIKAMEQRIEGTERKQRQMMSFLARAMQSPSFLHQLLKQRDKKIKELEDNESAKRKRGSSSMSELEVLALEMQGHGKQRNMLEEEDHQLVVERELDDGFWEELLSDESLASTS
UniProt P41151: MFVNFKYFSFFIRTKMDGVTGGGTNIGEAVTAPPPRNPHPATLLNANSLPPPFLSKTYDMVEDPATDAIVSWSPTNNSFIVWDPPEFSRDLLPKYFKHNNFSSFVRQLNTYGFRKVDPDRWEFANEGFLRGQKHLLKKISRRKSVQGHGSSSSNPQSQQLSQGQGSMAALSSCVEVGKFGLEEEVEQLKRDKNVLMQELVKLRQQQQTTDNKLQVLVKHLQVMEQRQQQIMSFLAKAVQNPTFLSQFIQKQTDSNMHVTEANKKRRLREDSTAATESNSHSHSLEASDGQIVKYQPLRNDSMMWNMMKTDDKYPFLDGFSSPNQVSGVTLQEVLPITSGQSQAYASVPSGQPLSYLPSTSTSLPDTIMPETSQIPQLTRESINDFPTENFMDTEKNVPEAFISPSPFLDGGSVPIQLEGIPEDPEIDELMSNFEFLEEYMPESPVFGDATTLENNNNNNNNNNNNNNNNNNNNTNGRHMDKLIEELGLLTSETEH
UniProt O81821: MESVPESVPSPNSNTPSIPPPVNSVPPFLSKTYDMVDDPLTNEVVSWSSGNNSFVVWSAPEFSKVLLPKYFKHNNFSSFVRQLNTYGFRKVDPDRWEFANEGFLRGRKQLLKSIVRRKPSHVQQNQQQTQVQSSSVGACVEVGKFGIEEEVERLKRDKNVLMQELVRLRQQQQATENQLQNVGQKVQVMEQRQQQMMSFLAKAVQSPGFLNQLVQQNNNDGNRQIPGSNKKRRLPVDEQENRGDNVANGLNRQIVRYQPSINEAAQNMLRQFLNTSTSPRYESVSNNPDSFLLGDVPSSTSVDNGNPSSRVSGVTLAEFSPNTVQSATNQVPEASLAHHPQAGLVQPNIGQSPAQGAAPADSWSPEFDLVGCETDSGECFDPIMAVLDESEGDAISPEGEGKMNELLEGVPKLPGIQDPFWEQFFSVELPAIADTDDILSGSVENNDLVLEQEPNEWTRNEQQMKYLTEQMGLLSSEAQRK

Assay [1] has as its target HSFA2-YFP expressed from pHSFA2::HSFA2-YFP (A. thaliana) (UniProt O80982). The assay is described as follows: affinity purification with mass spectrometry; HSFA2-YFP complexes isolated from seedlings under no-HS conditions, 45 min and 3 h after 1 h HS at 37 °C; trypsin digest, Q Exactive Plus.
In assay [2] the target is 3xFLAG-HSFA3 (FORGETTER3/HEAT SHOCK …ON FACTOR A3) expressed from pHSFA3::FLAG-HSFA3 (A. thaliana) (UniProt Q8GYY1). The assay is described as follows: affinity purification with mass spectrometry; FLAG-HSFA3 precipitated from the complementing pHSFA3::FLAG-HSFA3 line under no-HS conditions, 4 h after HS (1 h 37 °C) or 4 h after ACC; anti-DYKDDDDK beads; trypsin digest, Q Exactive Plus.

The target is the same in assay [3]. The assay is described as follows: affinity purification with mass spectrometry; Co-IP/MS of FLAG-HSFA3 in the hsfa2 mutant background, without HS or 4 h after ACC; Trypsin/Lys-C digest, Q Exactive HF.
Assay [4] deals with HSFA2-YFP expressed from pHSFA2::HSFA2-YFP (A. thaliana) (UniProt O80982). The assay is described as follows: affinity purification with mass spectrometry; Co-IP/MS of HSFA2-YFP in the hsfa3 mutant background, without HS or 4 h after ACC; Trypsin/Lys-C digest, Q Exactive HF.

On to “HSFA6B (endogenous) (from UniProt Q9LUH8 1-406)”, for which the binding result in assay [1] and in assay [2] was “binds” each time.

On to “HSFA3 (endogenous) (from UniProt Q8GYY1 1-412)”, for which the binding entry in assay [1] is recorded as “binds”.

As for “HSFA1D (endogenous) (from UniProt Q9LQM7 1-485)”, the binding result in assay [3], in assay [1], in assay [4] and in assay [2] was “binds” throughout.

Turning to “HSFA7A (endogenous) (from UniProt Q9SV12 1-272)”, the binding entry in assay [1] and in assay [2] was “binds” each time.

In the case of “HSFA1A (endogenous) (from UniProt P41151 1-495)”, the binding entry in assay [3], in assay [1], in assay [4] and in assay [2] was “binds” throughout.

Turning to “HSFA1B (endogenous) (from UniProt O81821 1-481)”, the binding result in assay [3], in assay [1], in assay [4] and in assay [2] was “binds” each time.
